From patent US20260091080A1
Results are given in words; binding and its absence hold for the method and conditions named. For some of these results: Binding seen in cells or lysates may run through a third protein. Some entries that bind do so weakly or less than the wild type. For some of these results: Where a sequence is shown, tags or fusion partners need not be part of it.

Columns and labels:
[1] = target: carboxyl-terminal part of human TDP-43 (amino acids 259-415), bait in pBT vector (human) (UniProt Q13148); assay: bacterial two-hybrid screen (BacterioMatch II), TDP-43 259-415 as bait, human brain cDNA library
[2] = target: TDP-43 wild type (non-mutant), C-terminal V5 tag (pcDNA3.1/V5) (human) (UniProt Q13148); assay: co-immunoprecipitation (data not shown)
[3] = target: TDP-43-A315T, C-terminal V5 tag (human) (UniProt Q13148); assay: co-immunoprecipitation (data not shown)
[4] = target: TDP-43-ΔNES (NES-deleted variant of TDP-43), C-terminal V5 tag (human) (UniProt Q13148); assay: co-immunoprecipitation (data not shown)
[5] = target: TDP-43-ΔNES (NES-deleted variant of TDP-43), C-terminal V5 tag (human) (UniProt Q13148); assay: co-immunoprecipitation after co-expression (n=3)
[6] = target: TDP-43-A315T, C-terminal V5 tag (human) (UniProt Q13148); assay: co-immunoprecipitation from co-transfected 293T HEK cells
[7] = target: TDP-43-ΔNES (NES-deleted variant of TDP-43), C-terminal V5 tag (human) (UniProt Q13148); assay: as above

Measured: binding

B1: 14-3-3θ (encoded by the YWHAQ gene), clone from human brain cDNA pTRG plasmid library (protein)
chain: MEKTELIQKAKLAEQAERYDDMATCMKAVTEQGAELSNEERNLLSVAYKNVVGGRRSAWRVISSIEQKTDTSDKKLQLIKDYREKVESELRSICTTVLELLDKYLIANATNPESKVFYLKMKGDYFRYLAEVACGDDRKQTIDNSQGAYQEAFDISKKEMQPTHPIRLGLALNFSVFYYEILNNPELACTLAKTAFDEAIAELDTLNEDSYKDSTLIMQLLRDNLTLWTSDSAGEECDAAEGAEN
binds: [1]

B2: 14-3-3η, C-terminal myc tag (protein, UniProt Q04917 1-246, looked up, not shown: small tags and cut ends)
chain: MGDREQLLQRARLAEQAERYDDMASAMKAVTELNEPLSNEDRNLLSVAYKNVVGARRSSWRVISSIEQKTMADGNEKKLEKVKAYREKIEKELETVCNDVLSLLDKFLIKNCNDFQYESKVFYLKMKGDYYRYLAEVASGEKKNSVVEASEAAYKEAFEISKEQMQPTHPIRLGLALNFSVFYYEIQNAPEQACLLAKQAFDDAIAELDTLNEDSYKDSTLIMQLLRDNLTLWTSDQQDEEAGEGN
binds: [2] | [3] | [4]

B3: 14-3-3γ, C-terminal myc tag (protein, UniProt P61981 1-247, looked up, not shown: small tags and cut ends)
chain: MVDREQLVQKARLAEQAERYDDMAAAMKNVTELNEPLSNEERNLLSVAYKNVVGARRSSWRVISSIEQKTSADGNEKKIEMVRAYREKIEKELEAVCQDVLSLLDNYLIKNCSETQYESKVFYLKMKGDYYRYLAEVATGEKRATVVESSEKAYSEAHEISKEHMQPTHPIRLGLALNYSVFYYEIQNAPEQACHLAKTAFDDAIAELDTLNEDSYKDSTLIMQLLRDNLTLWTSDQQDDDGGEGNN
binds: [2] | [3] | [4]

B4: 14-3-3θ, C-terminal myc tag (pcDNA3.1/myc) (protein, not shown: small tags and cut ends)
chain: MEKTELIQKAKLAEQAERYDDMATCMKAVTEQGAELSNEERNLLSVAYKNVVGGRRSAWRVISSIEQKTDTSDKKLQLIKDYREKVESELRSICTTVLELLDKYLIANATNPESKVFYLKMKGDYFRYLAEVACGDDRKQTIDNSQGAYQEAFDISKKEMQPTHPIRLGLALNFSVFYYEILNNPELACTLAKTAFDEAIAELDTLNEDSYKDSTLIMQLLRDNLTLWTSDSAGEECDAAEGAEN
binds: [2] | [3] | [4] | [5] | [6] | [7]
